From article PMC9716621
These are yes or no findings as the source states them, for the method shown. Binding seen in cells or lysates may run through a third protein. Some binding calls cover weakened binding; strength is not graded here.

By UniProt entry, the sequences of proteins in these tests, tags left out. Where a name states a change or a piece, a line headed by the entry shows the natural chain unless it says otherwise.
UniProt P14416: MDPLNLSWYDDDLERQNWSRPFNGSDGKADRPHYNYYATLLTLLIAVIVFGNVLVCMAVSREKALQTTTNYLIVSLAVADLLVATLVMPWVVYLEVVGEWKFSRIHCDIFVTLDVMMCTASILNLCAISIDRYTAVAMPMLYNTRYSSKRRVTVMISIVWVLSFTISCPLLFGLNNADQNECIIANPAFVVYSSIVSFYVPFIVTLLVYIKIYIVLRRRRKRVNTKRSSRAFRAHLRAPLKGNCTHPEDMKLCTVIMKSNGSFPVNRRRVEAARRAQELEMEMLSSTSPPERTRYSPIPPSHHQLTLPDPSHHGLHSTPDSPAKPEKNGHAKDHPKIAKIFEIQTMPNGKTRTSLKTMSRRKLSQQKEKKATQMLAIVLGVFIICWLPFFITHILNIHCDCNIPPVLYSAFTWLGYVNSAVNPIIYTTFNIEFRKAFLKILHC

Biological target: HA-tagged M1R (muscarinic acetylcholine M1 receptor) (UniProt P11229)
Assay: co-IP; lysates of HEK293T cells 48 h after transfection; immunoprecipitation with a mouse anti-HA antibody, immunoblot with rabbit anti-FLAG and rabbit anti-HA antibodies

“FLAG-D2R (dopamine D2 receptor) (from UniProt P14416 1-443)” was tested, and the binding was “binds”.
